These are yes or no findings as the source states them, for the method shown. For part of these data: Binding seen in cells or lysates may run through a third protein. Some results given as binding are weak or reduced against the parent protein; the word gives no strength.
Experiments:
[1] = biological target: GST-POU2F2 (UniProt P09086); experiment: pull-down; GST pull-down of His-SOX2 or His-OCT4 with GST-POU2F2; called a direct interaction; conditions in the Supporting Information; both purified
[2] = biological target: POU2F2 (in Hep3B and Huh7 cells) (human (endogenous in Hep3B, Huh7)) (UniProt P09086); experiment: co-IP; immunoprecipitation with an anti-POU2F2 antibody or control IgG in Hep3B and Huh7 cells, blot for OCT4 and SOX2

Sequences of proteins named here, by UniProt entry; tags and fusion partners are left off.
UniProt P09086: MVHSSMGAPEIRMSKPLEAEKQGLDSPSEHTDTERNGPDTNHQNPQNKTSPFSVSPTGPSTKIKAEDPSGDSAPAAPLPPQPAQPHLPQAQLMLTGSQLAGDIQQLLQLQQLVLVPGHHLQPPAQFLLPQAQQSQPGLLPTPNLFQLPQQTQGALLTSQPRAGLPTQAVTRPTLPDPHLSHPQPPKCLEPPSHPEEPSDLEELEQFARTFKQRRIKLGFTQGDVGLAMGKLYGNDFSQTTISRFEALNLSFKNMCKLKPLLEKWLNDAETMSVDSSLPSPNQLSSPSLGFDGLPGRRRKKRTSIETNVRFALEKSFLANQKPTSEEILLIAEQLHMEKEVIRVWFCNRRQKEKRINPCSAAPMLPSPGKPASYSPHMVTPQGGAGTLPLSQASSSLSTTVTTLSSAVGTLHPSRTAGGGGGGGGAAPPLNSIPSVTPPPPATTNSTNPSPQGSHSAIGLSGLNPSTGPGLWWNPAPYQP
UniProt Q01860: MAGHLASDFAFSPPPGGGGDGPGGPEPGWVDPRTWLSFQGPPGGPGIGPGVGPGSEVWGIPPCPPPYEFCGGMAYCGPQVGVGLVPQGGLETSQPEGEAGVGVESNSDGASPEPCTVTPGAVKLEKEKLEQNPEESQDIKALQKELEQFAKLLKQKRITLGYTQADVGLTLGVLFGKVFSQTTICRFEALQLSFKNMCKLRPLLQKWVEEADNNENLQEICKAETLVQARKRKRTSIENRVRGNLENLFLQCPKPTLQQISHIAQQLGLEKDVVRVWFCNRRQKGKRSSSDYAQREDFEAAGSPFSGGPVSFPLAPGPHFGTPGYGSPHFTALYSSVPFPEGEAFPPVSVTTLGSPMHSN
UniProt P48431: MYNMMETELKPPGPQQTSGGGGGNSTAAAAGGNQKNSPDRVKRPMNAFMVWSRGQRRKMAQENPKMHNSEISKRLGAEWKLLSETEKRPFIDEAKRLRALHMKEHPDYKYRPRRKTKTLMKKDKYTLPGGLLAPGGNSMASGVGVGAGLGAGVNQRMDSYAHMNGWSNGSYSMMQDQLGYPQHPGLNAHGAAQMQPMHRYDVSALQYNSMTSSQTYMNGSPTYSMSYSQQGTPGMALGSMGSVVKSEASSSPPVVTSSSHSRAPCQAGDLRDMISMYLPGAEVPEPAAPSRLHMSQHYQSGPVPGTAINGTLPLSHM

binding [1]	binding [2]	Substance
binds	–	His-OCT4 (from UniProt Q01860 1-360)
no binding	–	His-SOX2 (from UniProt P48431 1-317)
–	binds	OCT4 (in Hep3B and Huh7 cells) (from UniProt Q01860 1-360)
